Assay results from article PMC12034783.
No constants are given. Whether binding was seen depends on the method and setting. In cells and extracts the contact can be indirect. Some entries that bind do so weakly or less than the wild type.

Chains of the proteins cited; added tags and fusions are not shown.
UniProt Q15910: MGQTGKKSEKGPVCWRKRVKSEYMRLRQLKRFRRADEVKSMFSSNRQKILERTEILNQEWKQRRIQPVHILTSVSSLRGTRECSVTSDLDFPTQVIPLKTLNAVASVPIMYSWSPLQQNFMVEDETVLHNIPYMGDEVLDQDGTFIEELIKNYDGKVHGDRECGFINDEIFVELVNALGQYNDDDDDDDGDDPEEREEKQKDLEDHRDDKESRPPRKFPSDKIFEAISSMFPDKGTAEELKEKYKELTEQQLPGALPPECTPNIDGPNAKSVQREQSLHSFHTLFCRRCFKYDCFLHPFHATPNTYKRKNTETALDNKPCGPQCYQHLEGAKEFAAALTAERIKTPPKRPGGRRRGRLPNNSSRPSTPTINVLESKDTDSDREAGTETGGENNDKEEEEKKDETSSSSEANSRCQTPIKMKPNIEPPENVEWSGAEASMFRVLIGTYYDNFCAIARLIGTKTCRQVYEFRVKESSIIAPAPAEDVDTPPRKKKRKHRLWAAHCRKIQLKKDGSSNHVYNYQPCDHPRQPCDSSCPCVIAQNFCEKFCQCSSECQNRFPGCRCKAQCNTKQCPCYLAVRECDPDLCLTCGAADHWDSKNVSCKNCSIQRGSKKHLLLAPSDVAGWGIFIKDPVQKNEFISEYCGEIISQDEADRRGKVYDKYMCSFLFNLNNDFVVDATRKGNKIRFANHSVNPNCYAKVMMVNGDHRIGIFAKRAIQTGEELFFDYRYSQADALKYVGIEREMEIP
UniProt P62258: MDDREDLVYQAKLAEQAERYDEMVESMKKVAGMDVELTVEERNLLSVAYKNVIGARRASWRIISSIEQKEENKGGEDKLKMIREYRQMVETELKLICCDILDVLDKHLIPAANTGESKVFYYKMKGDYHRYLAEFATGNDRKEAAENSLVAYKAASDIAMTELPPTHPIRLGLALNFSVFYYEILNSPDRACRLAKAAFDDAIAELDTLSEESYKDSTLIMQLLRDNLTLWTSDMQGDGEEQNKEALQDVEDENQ

Target: Enhancer of Zeste Homolog-2 (EZH2) (human (endogenous in EA.hy926 and HUVEC)) (UniProt Q15910)
Experiment: co-IP; co-immunoprecipitation using EZH2, blot for 14-3-3 epsilon; EC, untreated control (Supplementary Fig. 7B)

Substance: 14-3-3 epsilon (from UniProt P62258 1-255)
- binding: binds
